Laboratory results as given in the supplement of paper PMC12823440, “Inhibitors supercharge kinase turnover through native proteolytic circuits” (Nature, 2025).
Counter-ions that a name gives are not always drawn. The list shows a part of the results. Hit calls seldom repeat between salt and free forms of one compound.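 In K562 cells expressing nanoluciferase-fused kinases, luminescence was recorded at 4 h intervals between 2 and 18 h, normalized as percent of control with DMSO at 100% and a positive control at 0%. A significant (2 sigma) signal drop marks a time point as decreased. The authors' rule for a hit is not shown and takes in more than the number of time points.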

Chains of the proteins cited; added tags and fusions are not shown. Lines headed by an entry give the natural chain unless they say otherwise; changes in a name come on top.
UniProt O75460: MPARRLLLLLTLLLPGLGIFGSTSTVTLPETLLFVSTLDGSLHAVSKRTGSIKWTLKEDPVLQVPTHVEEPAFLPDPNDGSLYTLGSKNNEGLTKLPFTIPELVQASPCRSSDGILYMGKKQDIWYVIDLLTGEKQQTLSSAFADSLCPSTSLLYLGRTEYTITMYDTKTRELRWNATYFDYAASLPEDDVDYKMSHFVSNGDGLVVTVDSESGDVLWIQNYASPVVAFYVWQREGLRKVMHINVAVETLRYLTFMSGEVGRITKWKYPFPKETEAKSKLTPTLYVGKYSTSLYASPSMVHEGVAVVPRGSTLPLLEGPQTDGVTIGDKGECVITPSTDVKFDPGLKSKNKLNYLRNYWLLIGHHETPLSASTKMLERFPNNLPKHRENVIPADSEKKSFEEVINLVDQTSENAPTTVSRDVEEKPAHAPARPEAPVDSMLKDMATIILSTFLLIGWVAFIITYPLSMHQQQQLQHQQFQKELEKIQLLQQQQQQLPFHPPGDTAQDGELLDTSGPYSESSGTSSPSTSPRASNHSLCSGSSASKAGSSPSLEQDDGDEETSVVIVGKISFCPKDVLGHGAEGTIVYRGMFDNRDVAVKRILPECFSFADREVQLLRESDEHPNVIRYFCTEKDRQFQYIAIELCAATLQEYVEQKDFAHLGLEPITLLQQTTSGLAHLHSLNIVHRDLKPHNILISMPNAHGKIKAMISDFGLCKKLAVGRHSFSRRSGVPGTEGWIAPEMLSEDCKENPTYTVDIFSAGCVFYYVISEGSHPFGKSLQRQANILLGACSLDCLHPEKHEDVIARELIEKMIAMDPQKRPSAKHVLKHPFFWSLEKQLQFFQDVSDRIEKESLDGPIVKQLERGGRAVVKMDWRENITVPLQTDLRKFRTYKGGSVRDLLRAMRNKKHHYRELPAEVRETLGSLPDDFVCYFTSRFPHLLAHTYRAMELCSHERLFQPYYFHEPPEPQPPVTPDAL
UniProt P22607, whole entry, looked up: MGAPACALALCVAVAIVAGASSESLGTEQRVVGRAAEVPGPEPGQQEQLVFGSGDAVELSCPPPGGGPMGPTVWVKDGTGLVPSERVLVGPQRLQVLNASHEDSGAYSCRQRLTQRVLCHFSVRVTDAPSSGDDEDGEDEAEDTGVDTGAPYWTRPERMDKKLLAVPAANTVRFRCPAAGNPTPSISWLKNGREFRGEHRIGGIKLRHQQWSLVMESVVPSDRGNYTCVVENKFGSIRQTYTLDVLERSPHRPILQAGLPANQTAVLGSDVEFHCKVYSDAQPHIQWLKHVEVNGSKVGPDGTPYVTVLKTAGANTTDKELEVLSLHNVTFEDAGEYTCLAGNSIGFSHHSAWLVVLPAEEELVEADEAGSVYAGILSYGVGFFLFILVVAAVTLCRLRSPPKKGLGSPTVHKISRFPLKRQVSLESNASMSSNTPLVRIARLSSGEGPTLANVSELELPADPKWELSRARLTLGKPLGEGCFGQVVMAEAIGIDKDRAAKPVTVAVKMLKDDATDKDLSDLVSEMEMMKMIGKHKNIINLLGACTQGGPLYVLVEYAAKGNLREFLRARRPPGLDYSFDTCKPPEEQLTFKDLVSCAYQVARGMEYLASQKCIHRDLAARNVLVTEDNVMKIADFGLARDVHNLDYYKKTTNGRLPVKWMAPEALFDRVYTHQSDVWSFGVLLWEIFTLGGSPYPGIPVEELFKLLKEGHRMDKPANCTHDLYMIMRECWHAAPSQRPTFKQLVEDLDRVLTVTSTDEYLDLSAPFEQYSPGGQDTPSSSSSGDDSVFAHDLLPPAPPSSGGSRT
UniProt P36888, whole entry: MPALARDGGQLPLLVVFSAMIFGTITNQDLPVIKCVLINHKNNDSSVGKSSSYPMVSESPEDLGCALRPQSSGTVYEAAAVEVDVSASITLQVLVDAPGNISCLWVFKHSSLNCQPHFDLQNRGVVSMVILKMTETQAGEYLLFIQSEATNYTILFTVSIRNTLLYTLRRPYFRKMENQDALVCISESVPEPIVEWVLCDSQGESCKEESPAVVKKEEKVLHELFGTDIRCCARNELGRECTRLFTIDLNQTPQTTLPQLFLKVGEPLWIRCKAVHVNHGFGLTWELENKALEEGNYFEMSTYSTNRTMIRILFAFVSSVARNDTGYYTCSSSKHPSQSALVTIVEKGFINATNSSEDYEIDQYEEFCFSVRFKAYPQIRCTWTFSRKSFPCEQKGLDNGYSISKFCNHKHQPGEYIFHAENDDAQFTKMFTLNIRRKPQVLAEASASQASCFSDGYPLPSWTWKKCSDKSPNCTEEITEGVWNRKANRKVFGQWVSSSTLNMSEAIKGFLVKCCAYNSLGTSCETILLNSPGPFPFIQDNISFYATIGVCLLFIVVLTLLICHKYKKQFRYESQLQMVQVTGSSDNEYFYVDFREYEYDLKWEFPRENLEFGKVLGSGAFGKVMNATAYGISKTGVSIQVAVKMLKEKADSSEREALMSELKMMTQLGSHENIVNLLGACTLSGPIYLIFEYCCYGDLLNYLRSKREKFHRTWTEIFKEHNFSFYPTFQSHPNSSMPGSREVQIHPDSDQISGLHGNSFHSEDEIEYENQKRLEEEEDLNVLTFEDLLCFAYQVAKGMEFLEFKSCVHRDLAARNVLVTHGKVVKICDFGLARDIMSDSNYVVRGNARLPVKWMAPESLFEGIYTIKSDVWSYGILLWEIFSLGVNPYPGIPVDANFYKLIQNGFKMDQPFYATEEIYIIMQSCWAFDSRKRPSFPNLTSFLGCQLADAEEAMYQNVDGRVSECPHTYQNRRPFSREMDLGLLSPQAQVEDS
UniProt P06241, whole entry, looked up: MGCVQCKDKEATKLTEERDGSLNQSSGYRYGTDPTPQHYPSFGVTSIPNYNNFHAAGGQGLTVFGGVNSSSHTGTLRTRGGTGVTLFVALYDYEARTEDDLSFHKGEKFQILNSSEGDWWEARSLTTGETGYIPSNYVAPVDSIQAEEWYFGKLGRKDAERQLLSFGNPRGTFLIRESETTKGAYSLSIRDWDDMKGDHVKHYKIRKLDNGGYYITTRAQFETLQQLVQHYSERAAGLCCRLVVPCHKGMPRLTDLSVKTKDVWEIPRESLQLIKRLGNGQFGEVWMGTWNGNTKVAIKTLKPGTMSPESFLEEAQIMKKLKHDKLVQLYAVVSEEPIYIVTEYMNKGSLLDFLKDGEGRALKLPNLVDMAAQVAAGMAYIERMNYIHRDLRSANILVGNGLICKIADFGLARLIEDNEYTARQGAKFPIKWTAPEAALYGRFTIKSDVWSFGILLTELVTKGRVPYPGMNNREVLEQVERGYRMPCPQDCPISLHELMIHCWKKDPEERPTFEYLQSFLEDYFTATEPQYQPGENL
UniProt P49840: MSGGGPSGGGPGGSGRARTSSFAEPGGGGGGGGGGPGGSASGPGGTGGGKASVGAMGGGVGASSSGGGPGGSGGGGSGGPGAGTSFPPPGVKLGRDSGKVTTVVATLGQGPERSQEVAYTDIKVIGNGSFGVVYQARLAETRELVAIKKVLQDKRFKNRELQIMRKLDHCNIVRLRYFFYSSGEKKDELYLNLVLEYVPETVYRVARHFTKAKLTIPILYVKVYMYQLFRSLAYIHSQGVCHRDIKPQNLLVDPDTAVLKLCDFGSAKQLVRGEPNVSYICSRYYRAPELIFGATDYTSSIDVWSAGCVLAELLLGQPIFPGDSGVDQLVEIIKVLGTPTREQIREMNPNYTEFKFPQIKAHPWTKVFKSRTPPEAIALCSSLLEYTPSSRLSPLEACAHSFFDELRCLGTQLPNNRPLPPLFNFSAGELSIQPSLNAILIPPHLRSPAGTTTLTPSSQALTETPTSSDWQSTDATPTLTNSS
UniProt Q9Y616: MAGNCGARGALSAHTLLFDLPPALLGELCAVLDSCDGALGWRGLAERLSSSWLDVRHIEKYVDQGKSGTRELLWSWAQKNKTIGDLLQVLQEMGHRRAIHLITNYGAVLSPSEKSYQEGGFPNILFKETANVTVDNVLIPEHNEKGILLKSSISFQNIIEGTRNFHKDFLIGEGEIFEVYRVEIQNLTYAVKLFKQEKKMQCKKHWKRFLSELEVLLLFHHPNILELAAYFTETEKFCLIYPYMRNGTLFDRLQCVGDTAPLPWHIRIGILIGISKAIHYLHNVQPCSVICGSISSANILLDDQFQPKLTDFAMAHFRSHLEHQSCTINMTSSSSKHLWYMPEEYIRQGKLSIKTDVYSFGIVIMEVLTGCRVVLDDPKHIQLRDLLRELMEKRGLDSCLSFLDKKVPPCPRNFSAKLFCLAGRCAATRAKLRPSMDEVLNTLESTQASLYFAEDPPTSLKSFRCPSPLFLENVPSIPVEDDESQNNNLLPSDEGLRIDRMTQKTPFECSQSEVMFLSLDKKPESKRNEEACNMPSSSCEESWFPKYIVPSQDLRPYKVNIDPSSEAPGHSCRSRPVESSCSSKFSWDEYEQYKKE
UniProt P53667: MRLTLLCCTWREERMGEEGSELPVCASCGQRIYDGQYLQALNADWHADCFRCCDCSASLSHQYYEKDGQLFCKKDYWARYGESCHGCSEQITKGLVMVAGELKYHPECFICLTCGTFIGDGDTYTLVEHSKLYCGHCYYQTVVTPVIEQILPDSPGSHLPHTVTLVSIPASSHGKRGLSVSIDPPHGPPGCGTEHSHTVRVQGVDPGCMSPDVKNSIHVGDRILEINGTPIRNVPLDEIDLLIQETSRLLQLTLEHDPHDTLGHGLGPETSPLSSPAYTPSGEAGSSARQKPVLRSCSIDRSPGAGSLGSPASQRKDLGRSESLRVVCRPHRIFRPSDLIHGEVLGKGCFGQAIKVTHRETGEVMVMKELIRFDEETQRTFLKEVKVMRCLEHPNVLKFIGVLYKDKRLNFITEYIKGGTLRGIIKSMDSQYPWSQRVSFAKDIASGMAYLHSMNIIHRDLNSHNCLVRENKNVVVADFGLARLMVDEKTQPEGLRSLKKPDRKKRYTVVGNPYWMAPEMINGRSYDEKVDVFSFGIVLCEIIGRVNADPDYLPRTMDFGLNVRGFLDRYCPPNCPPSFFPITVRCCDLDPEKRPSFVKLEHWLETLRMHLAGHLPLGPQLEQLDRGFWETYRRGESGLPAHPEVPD
UniProt Q8IWU2: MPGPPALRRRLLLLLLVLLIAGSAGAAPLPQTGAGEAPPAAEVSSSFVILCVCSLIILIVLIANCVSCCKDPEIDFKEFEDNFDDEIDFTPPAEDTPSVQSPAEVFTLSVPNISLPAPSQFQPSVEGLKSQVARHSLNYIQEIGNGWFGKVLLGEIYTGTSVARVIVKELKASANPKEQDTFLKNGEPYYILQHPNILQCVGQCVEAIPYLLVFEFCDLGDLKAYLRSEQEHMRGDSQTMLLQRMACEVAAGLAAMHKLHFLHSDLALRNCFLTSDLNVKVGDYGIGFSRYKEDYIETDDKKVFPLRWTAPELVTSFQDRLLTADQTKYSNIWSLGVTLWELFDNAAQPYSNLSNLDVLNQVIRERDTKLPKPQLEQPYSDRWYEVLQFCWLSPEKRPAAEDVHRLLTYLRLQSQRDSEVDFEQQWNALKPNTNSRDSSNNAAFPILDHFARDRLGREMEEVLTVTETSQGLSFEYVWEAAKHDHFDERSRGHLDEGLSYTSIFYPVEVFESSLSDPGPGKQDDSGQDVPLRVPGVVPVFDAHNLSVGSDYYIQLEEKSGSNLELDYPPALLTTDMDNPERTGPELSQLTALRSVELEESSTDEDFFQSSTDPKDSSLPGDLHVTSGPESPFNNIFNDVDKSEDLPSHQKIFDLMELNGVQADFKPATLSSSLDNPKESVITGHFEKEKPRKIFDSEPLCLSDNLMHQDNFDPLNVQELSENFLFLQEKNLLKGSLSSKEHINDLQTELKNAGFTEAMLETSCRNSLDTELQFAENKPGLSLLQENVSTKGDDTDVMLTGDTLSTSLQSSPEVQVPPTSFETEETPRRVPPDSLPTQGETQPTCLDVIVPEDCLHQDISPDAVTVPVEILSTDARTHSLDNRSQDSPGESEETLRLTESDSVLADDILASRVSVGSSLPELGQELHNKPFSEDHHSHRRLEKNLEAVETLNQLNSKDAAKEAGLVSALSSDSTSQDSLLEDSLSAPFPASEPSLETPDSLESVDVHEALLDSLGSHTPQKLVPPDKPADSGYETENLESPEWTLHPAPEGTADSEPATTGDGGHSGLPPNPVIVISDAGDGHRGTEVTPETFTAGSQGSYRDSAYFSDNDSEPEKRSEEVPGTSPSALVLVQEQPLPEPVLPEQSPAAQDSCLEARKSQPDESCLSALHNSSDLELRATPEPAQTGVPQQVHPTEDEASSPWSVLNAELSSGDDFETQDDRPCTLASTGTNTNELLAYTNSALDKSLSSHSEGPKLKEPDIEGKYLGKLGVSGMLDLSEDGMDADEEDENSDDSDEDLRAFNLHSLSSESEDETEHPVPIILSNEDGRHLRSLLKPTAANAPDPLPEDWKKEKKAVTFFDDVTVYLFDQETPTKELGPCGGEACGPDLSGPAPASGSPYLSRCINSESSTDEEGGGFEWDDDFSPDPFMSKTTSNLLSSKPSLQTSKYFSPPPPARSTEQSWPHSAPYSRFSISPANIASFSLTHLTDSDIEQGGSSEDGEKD

How the values were obtained:
Test in all cases: kinase-Nluc reporter destabilization hit call (1 = scored as downregulated) (binary); higher = compound decreases kinase abundance
Settings in all cases: K562, 2-18 h
ERN1 = ERN1 (UniProt O75460)
FGFR1 = FGFR1 (UniProt P11362)
FGFR2 = FGFR2 (UniProt P21802)
FGFR3 = FGFR3 (UniProt P22607)
FGR = FGR (UniProt P09769)
FLT3 = FLT3 (UniProt P36888)
FYN = FYN (UniProt P06241)
GSK3A = GSK3A (UniProt P49840)
HER2 = HER2 (UniProt P04626)
INSRR = INSRR (UniProt P14616)
IRAK3 = IRAK3 (UniProt Q9Y616)
JAK1 = JAK1 (UniProt P23458)
LIMK1 = LIMK1 (UniProt P53667)
LIMK2 = LIMK2 (UniProt P53671)
LMTK2 = LMTK2 (UniProt Q8IWU2)
LYN = LYN (UniProt P07948)
MAP2K1 = MAP2K1 (UniProt Q02750)
MAP2K2 = MAP2K2 (UniProt P36507)
MAP4K2 = MAP4K2 (UniProt Q12851)
LCK = LCK (UniProt P06239)

Measured: kinase-Nluc reporter destabilization hit call

C[C@@H](N)[C@H]1CC[C@H](C(=O)Nc2ccncc2)CC1
inactive: ERN1; 10 µM 0 | FGFR1; 10 µM 0 | FGFR2; 10 µM 0 | FGFR3; 10 µM 0 | FGR; 10 µM 0 | FLT3; 10 µM 0 | FYN; 10 µM 0 | GSK3A; 10 µM 0 | HER2; 10 µM 0 | INSRR; 10 µM 0 | IRAK3; 10 µM 0 | JAK1; 10 µM 0 | LIMK1; 10 µM 0 | LIMK2; 10 µM 0 | LMTK2; 10 µM 0 | LYN; 10 µM 0 | MAP2K1; 10 µM 0 | MAP2K2; 10 µM 0 | MAP4K2; 10 µM 0

Cn1cc(-c2cnc3ccc4ccc(CS(=O)(=O)NCc5ccccn5)cc4c(=O)c3c2)cn1
inactive: ERN1; 10 µM 0 | FGFR1; 10 µM 0 | FGFR2; 10 µM 0 | FGFR3; 10 µM 0 | FGR; 10 µM 0 | FLT3; 10 µM 0 | FYN; 10 µM 0 | GSK3A; 10 µM 0 | HER2; 10 µM 0 | INSRR; 10 µM 0 | IRAK3; 10 µM 0 | JAK1; 10 µM 0 | LCK; 10 µM 0 | LIMK1; 10 µM 0 | LIMK2; 10 µM 0 | LMTK2; 10 µM 0 | LYN; 10 µM 0 | MAP2K1; 10 µM 0 | MAP2K2; 10 µM 0 | MAP4K2; 10 µM 0

CNC(=O)c1ccc(Nc2ncc(C(F)(F)F)c(NCc3nccnc3N(C)S(C)(=O)=O)n2)cc1 [Defactinib]
inactive: ERN1; 10 µM 0 | FGFR1; 10 µM 0 | FGFR2; 10 µM 0 | FGFR3; 10 µM 0 | FGR; 10 µM 0 | FLT3; 10 µM 0 | FYN; 10 µM 0 | GSK3A; 10 µM 0 | HER2; 10 µM 0 | INSRR; 10 µM 0 | IRAK3; 10 µM 0 | JAK1; 10 µM 0 | LCK; 10 µM 0 | LIMK1; 10 µM 0 | LIMK2; 10 µM 0 | LMTK2; 10 µM 0 | LYN; 10 µM 0 | MAP2K1; 10 µM 0 | MAP2K2; 10 µM 0 | MAP4K2; 10 µM 0

O=C(O)c1ccc2c(c1)nc(Nc1cccc(Cl)c1)c1ccncc12 [Silmitasertib]
inactive: ERN1; 10 µM 0 | FGFR1; 10 µM 0 | FGFR2; 10 µM 0 | FGFR3; 10 µM 0 | FGR; 10 µM 0 | FLT3; 10 µM 0 | FYN; 10 µM 0 | GSK3A; 10 µM 0 | HER2; 10 µM 0 | INSRR; 10 µM 0 | IRAK3; 10 µM 0 | JAK1; 10 µM 0 | LCK; 10 µM 0 | LIMK1; 10 µM 0 | LIMK2; 10 µM 0 | LMTK2; 10 µM 0 | LYN; 10 µM 0 | MAP2K1; 10 µM 0 | MAP2K2; 10 µM 0 | MAP4K2; 10 µM 0

CC(=O)Nc1cccc(-n2c(=O)n(C3CC3)c(=O)c3c(Nc4ccc(I)cc4F)n(C)c(=O)c(C)c32)c1 [Trametinib (DMSO solvate)]
inactive: ERN1; 10 µM 0 | FGFR1; 10 µM 0 | FGFR2; 10 µM 0 | FGFR3; 10 µM 0 | FGR; 10 µM 0 | FLT3; 10 µM 0 | FYN; 10 µM 0 | GSK3A; 10 µM 0 | HER2; 10 µM 0 | INSRR; 10 µM 0 | IRAK3; 10 µM 0 | JAK1; 10 µM 0 | LCK; 10 µM 0 | LIMK1; 10 µM 0 | LIMK2; 10 µM 0 | LMTK2; 10 µM 0 | LYN; 10 µM 0 | MAP2K1; 10 µM 0 | MAP2K2; 10 µM 0 | MAP4K2; 10 µM 0

FC(F)(F)c1ccc(CNc2ccc(Cc3c[nH]c4ncc(Cl)cc34)cn2)cn1 [Pexidartinib (hydrochloride)]
inactive: ERN1; 10 µM 0 | FGFR1; 10 µM 0 | FGFR2; 10 µM 0 | FGFR3; 10 µM 0 | FGR; 10 µM 0 | FLT3; 10 µM 0 | FYN; 10 µM 0 | GSK3A; 10 µM 0 | HER2; 10 µM 0 | INSRR; 10 µM 0 | IRAK3; 10 µM 0 | JAK1; 10 µM 0 | LCK; 10 µM 0 | LIMK1; 10 µM 0 | LIMK2; 10 µM 0 | LMTK2; 10 µM 0 | LYN; 10 µM 0 | MAP2K1; 10 µM 0 | MAP2K2; 10 µM 0 | MAP4K2; 10 µM 0

C[C@H](CCC(=O)NCCS(=O)(=O)O)[C@H]1CC[C@H]2[C@@H]3[C@@H](O)C[C@@H]4C[C@H](O)CC[C@]4(C)[C@H]3CC[C@]12C [Tauroursodeoxycholate (sodium)]
inactive: ERN1; 10 µM 0 | FGFR1; 10 µM 0 | FGFR2; 10 µM 0 | FGFR3; 10 µM 0 | FGR; 10 µM 0 | FLT3; 10 µM 0 | FYN; 10 µM 0 | GSK3A; 10 µM 0 | HER2; 10 µM 0 | INSRR; 10 µM 0 | IRAK3; 10 µM 0 | JAK1; 10 µM 0 | LCK; 10 µM 0 | LIMK1; 10 µM 0 | LIMK2; 10 µM 0 | LMTK2; 10 µM 0 | LYN; 10 µM 0 | MAP2K1; 10 µM 0 | MAP2K2; 10 µM 0 | MAP4K2; 10 µM 0

C=CC(=O)Nc1cc2c(Nc3ccc(F)c(Cl)c3)ncnc2cc1C#CC(C)(C)N1CCN(C)CC1
active: HER2; 2.5 µM 1 | LIMK1; 2.5 µM 1 | LIMK2; 2.5 µM 1
inactive: ERN1; 2.5 µM 0 | FGFR1; 2.5 µM 0 | FGFR2; 2.5 µM 0 | FGFR3; 2.5 µM 0 | FGR; 2.5 µM 0 | FLT3; 2.5 µM 0 | FYN; 2.5 µM 0 | GSK3A; 2.5 µM 0 | INSRR; 2.5 µM 0 | IRAK3; 2.5 µM 0 | JAK1; 2.5 µM 0 | LCK; 2.5 µM 0 | LMTK2; 2.5 µM 0 | LYN; 2.5 µM 0 | MAP2K1; 2.5 µM 0 | MAP2K2; 2.5 µM 0 | MAP4K2; 2.5 µM 0

Cc1[nH]c(/C=C2\C(=O)Nc3ccc(F)cc32)c(C)c1C(=O)NCCN1CCCC1 [Toceranib]
inactive: ERN1; 2 µM 0 | FGFR1; 2 µM 0 | FGFR2; 2 µM 0 | FGFR3; 2 µM 0 | FGR; 2 µM 0 | FLT3; 2 µM 0 | FYN; 2 µM 0 | GSK3A; 2 µM 0 | HER2; 2 µM 0 | INSRR; 2 µM 0 | IRAK3; 2 µM 0 | JAK1; 2 µM 0 | LCK; 2 µM 0 | LIMK1; 2 µM 0 | LIMK2; 2 µM 0 | LMTK2; 2 µM 0 | LYN; 2 µM 0 | MAP2K1; 2 µM 0 | MAP2K2; 2 µM 0 | MAP4K2; 2 µM 0

C=CC(=O)Nc1cc(Nc2nccc(-c3cn(C)c4ccccc34)n2)c(OC)cc1N(C)CCN(C)C [Osimertinib]
inactive: ERN1; 2.5 µM 0 | FGFR1; 2.5 µM 0 | FGFR2; 2.5 µM 0 | FGFR3; 2.5 µM 0 | FGR; 2.5 µM 0 | FLT3; 2.5 µM 0 | FYN; 2.5 µM 0 | GSK3A; 2.5 µM 0 | HER2; 2.5 µM 0 | INSRR; 2.5 µM 0 | IRAK3; 2.5 µM 0 | JAK1; 2.5 µM 0 | LCK; 2.5 µM 0 | LIMK1; 2.5 µM 0 | LIMK2; 2.5 µM 0 | LMTK2; 2.5 µM 0 | LYN; 2.5 µM 0 | MAP2K1; 2.5 µM 0 | MAP2K2; 2.5 µM 0 | MAP4K2; 2.5 µM 0

O=C(c1ccc(F)c(F)c1Nc1ccc(I)cc1F)N1CC(O)([C@@H]2CCCCN2)C1 [Cobimetinib (hemifumarate)]
inactive: ERN1; 10 µM 0 | FGFR1; 10 µM 0 | FGFR2; 10 µM 0 | FGFR3; 10 µM 0 | FGR; 10 µM 0 | FLT3; 10 µM 0 | FYN; 10 µM 0 | GSK3A; 10 µM 0 | HER2; 10 µM 0 | INSRR; 10 µM 0 | IRAK3; 10 µM 0 | JAK1; 10 µM 0 | LCK; 10 µM 0 | LIMK1; 10 µM 0 | LIMK2; 10 µM 0 | LMTK2; 10 µM 0 | LYN; 10 µM 0 | MAP2K1; 10 µM 0 | MAP2K2; 10 µM 0 | MAP4K2; 10 µM 0

CC(=O)c1c(C)c2cnc(Nc3ccc(N4CCNCC4)cn3)nc2n(C2CCCC2)c1=O [Palbociclib (monohydrochloride)]
inactive: ERN1; 10 µM 0 | FGFR1; 10 µM 0 | FGFR2; 10 µM 0 | FGFR3; 10 µM 0 | FGR; 10 µM 0 | FLT3; 10 µM 0 | FYN; 10 µM 0 | GSK3A; 10 µM 0 | HER2; 10 µM 0 | INSRR; 10 µM 0 | IRAK3; 10 µM 0 | JAK1; 10 µM 0 | LIMK1; 10 µM 0 | LIMK2; 10 µM 0 | LMTK2; 10 µM 0 | LYN; 10 µM 0 | MAP2K1; 10 µM 0 | MAP2K2; 10 µM 0 | MAP4K2; 10 µM 0

At a glance, three of the compounds above.
Cc1[nH]c(/C=C2\C(=O)Nc3ccc(F)cc32)c(C)c1C(=O)NCCN1CCCC1 [Toceranib]
inactive: ERN1; 2 µM 0 | FGFR1; 2 µM 0 | FGFR2; 2 µM 0 | FGFR3; 2 µM 0 | FGR; 2 µM 0 | FLT3; 2 µM 0 | FYN; 2 µM 0 | GSK3A; 2 µM 0 | HER2; 2 µM 0 | INSRR; 2 µM 0 | IRAK3; 2 µM 0 | JAK1; 2 µM 0 | LCK; 2 µM 0 | LIMK1; 2 µM 0 | LIMK2; 2 µM 0 | LMTK2; 2 µM 0 | LYN; 2 µM 0 | MAP2K1; 2 µM 0 | MAP2K2; 2 µM 0 | MAP4K2; 2 µM 0

C=CC(=O)Nc1cc(Nc2nccc(-c3cn(C)c4ccccc34)n2)c(OC)cc1N(C)CCN(C)C [Osimertinib]
inactive: ERN1; 2.5 µM 0 | FGFR1; 2.5 µM 0 | FGFR2; 2.5 µM 0 | FGFR3; 2.5 µM 0 | FGR; 2.5 µM 0 | FLT3; 2.5 µM 0 | FYN; 2.5 µM 0 | GSK3A; 2.5 µM 0 | HER2; 2.5 µM 0 | INSRR; 2.5 µM 0 | IRAK3; 2.5 µM 0 | JAK1; 2.5 µM 0 | LCK; 2.5 µM 0 | LIMK1; 2.5 µM 0 | LIMK2; 2.5 µM 0 | LMTK2; 2.5 µM 0 | LYN; 2.5 µM 0 | MAP2K1; 2.5 µM 0 | MAP2K2; 2.5 µM 0 | MAP4K2; 2.5 µM 0

O=C(c1ccc(F)c(F)c1Nc1ccc(I)cc1F)N1CC(O)([C@@H]2CCCCN2)C1 [Cobimetinib (hemifumarate)]
inactive: ERN1; 10 µM 0 | FGFR1; 10 µM 0 | FGFR2; 10 µM 0 | FGFR3; 10 µM 0 | FGR; 10 µM 0 | FLT3; 10 µM 0 | FYN; 10 µM 0 | GSK3A; 10 µM 0 | HER2; 10 µM 0 | INSRR; 10 µM 0 | IRAK3; 10 µM 0 | JAK1; 10 µM 0 | LCK; 10 µM 0 | LIMK1; 10 µM 0 | LIMK2; 10 µM 0 | LMTK2; 10 µM 0 | LYN; 10 µM 0 | MAP2K1; 10 µM 0 | MAP2K2; 10 µM 0 | MAP4K2; 10 µM 0
